Results deposited as PubChem BioAssay AID743454 (Peter MacCallum Cancer Centre, 2014)
This is one part, drawn at random, of about 18,000 reagents. 450 of them (2.5%) count as active. 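Single biological run; no consistent viability z cut-off exists, so the class columns, not z-scores, define the calls.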

Aim: 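Search for knock-downs that restore vorinostat killing in resistant colon cancer cells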 (primary screen)
Cell system: human HCT116-VR colon cancer cells, selected for vorinostat resistance
Reagent: siRNA pool against human genes, 40 nM siRNA pool
Timing: vorinostat for 24 h, read-out about 72 h after transfection
Treatment: vorinostat at 2.5 µM final
Measurement: 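Two measures, CellTiter-Fluor viability and luminescent caspase 3/7 activity, each as fold change against same-plate mock wells, mean of duplicates, then screen-wide robust z-score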
Scale: viability robust z-score: higher = more viable cells than screen typical; caspase robust z-score: higher = more caspase 3/7 activity than screen typical
Call rule: 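a knock-down is a hit when classed RV1 or RV2 for lowered viability, or CA1 or CA2 for caspase activation; those lethal without drug were dropped; hits were retested singly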

For INHBE (GeneID 83729), how do the results read?
viability hit class: no change; caspase hit class: no change; viability robust z-score: -0.68; caspase robust z-score: 0.6; Outcome: inactive

With ABCC2 (GeneID 1244), how do the results read?
viability hit class: no change; caspase hit class: no change; viability robust z-score: 0.69; caspase robust z-score: -0.36; Outcome: inactive

For NSG1 (GeneID 27065), what was measured?
viability hit class: no change; caspase hit class: no change; viability robust z-score: 0.76; caspase robust z-score: 2.81; Outcome: inactive

For PMEPA1 (GeneID 56937), what does the deposit list?
viability hit class: no change; caspase hit class: no change; viability robust z-score: -0.74; caspase robust z-score: 3.31; Outcome: inactive

With PEX6 (GeneID 5190), what does the deposit list?
viability hit class: no change; caspase hit class: no change; viability robust z-score: -1.03; caspase robust z-score: 0.22; Outcome: inactive

For DNMT3B (GeneID 1789), what was measured?
viability hit class: no change; caspase hit class: no change; viability robust z-score: -0.35; caspase robust z-score: -0.02; Outcome: inactive

What is on record for SIN3A (GeneID 25942)?
viability hit class: no change; caspase hit class: CA2 (caspase activation); viability robust z-score: -1.32; caspase robust z-score: 6.65; Outcome: active

What is on record for LRRC26 (GeneID 389816)?
viability hit class: no change; caspase hit class: no change; viability robust z-score: -0.56; caspase robust z-score: 0.12; Outcome: inactive

With LEMD1 (GeneID 93273), what was measured?
viability hit class: no change; caspase hit class: no change; viability robust z-score: -0.06; caspase robust z-score: 0.89; Outcome: inactive

What did the screen give for QARS1 (GeneID 5859)?
viability hit class: no change; caspase hit class: no change; viability robust z-score: -2.86; caspase robust z-score: 1.14; Outcome: inactive

For FCER1A (GeneID 2205), how do the results read?
viability hit class: no change; caspase hit class: no change; viability robust z-score: -1.77; caspase robust z-score: 1.92; Outcome: inactive

For OLFML2B (GeneID 25903), what was measured?
viability hit class: no change; caspase hit class: no change; viability robust z-score: 1.21; caspase robust z-score: 0.54; Outcome: inactive

Entries listed so far whose target name begins with P or p (2):
PMEPA1 (GeneID 56937): viability hit class = no change; caspase hit class = no change; viability robust z-score = -0.74; caspase robust z-score = 3.31; Outcome = inactive
PEX6 (GeneID 5190): viability hit class = no change; caspase hit class = no change; viability robust z-score = -1.03; caspase robust z-score = 0.22; Outcome = inactive
